Experimental data reported in patent publication US7863315B2, “2-indolinone derivatives as selective histone deacetylase inhibitors” (Shenzhen Chipscreen Biosciences, Ltd., priority 2008, dated 2011).

How the values were obtained:
[1] = system: lysine acetylation; test: ELISA assay of acetylation of lysine in HeLa cells; format: cell-based; settings: Homo sapiens, M-HeLa, 24 hours
Description: (§1) Measurement of acetylation activity in cells on substrates:
ELISA Assay of Acetylation of Lysine
This assay is used to measure in vivo inhibition of HDAC6 in a cytoblot assay.
(§2) Materials and Reagent: • 1. 24-well tissue culture • 2. DMEM Medium containing 10% FBS • 3. 96-well white plate • 4. HeLa cell line • 5. M-PER Mammalian Protein Extraction Reagent (Pierce) • 6. Bradford assay reagent • 7. Acetylated-lysine polyclonal Antibody (Cell Signaling) • 8. HRP-labeled anti-rabbit IgG (Upstate) • 9. Coating Buffer: 15 mM Na2CO3, 35 mM NaHCO3 (pH 9.6) • 10. 10×PBS: 0.58M Na2HPO4, 0.17M NaH2PO4, 0.68M NaCl (pH 7.4) • 11. Wash Buffer:1×PBS containing 0.05% Tween-20 (PBST) • 12. Blocking Buffer:10 mg/ml bocine serum albumin (BSA) in PBS • 13. Antibody Dilution Buffer: 5 mg/ml BSA in PBST • 14. Enhanced chemiluminescence (ECL) (Amersham)
(§3) Procedure for performing the assay in 96-well plate: • 1. HeLa cells were seeded at a density of 60000 cells/500 μl/well in 24-well plate and incubated at 37° C. for 24 hours. • 2. Compounds were added and incubated for 24 hours at 37° C. • 3. Culture medium was removed, then washes the cells twice with ice-cold PBS. • 4. Add 100 μl/well of Protein Extraction Reagent and gently shake the mixture for 5 minutes. • 5. Collect the lysate to a 96-well plate respectively. […] Add 50 μl/well of ECL mixture, then read the plates on the plate reader.

[2] = target: T1, HDAC6 (α-tubulin acetylation) (Homo sapiens, UniProt Q9UBN7); test: ELISA assay of acetylation of α-tubulin in HeLa cells; format: cell-based; settings: M-HeLa, 24 hours
T1 construct: endogenous in cells; host or cells: HeLa
T1 sequence (Q9UBN7 1-1215): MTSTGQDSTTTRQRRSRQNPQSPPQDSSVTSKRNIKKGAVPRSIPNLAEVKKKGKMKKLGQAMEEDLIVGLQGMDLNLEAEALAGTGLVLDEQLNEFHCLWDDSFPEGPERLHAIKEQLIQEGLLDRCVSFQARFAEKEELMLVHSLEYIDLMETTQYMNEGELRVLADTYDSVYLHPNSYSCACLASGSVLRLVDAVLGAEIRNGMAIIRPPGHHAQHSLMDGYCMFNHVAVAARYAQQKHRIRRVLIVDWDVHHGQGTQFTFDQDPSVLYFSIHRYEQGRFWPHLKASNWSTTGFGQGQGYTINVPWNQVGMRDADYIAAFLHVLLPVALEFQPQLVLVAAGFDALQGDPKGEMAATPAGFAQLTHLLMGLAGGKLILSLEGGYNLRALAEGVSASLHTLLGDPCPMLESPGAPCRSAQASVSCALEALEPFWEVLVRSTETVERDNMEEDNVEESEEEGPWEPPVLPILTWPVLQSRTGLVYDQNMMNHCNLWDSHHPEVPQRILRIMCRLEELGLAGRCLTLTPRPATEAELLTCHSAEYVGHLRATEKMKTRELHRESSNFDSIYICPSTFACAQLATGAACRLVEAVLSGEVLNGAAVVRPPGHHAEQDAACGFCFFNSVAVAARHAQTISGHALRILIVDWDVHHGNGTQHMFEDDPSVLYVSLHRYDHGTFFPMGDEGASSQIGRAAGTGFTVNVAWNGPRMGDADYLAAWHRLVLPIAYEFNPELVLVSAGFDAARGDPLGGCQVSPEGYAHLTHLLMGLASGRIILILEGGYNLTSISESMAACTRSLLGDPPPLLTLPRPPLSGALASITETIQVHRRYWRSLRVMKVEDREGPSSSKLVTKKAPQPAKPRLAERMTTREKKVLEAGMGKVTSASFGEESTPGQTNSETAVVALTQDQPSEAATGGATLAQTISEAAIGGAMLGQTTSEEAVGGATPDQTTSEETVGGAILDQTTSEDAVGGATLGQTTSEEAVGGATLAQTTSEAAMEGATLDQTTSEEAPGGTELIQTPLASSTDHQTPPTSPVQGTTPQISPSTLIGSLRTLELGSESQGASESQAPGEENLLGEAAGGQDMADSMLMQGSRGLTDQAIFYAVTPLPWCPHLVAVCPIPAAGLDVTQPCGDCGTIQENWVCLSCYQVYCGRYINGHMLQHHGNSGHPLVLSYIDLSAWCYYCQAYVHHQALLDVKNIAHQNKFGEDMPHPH
Procedure: as §1
ELISA assay of acetylation of α-tubulin
as §2, with “This assay is used to measure in vivo inhibition of HDAC6 in a cytoblot assay. Materials” for “Materials”, “Anti-acetyl-tubulin (Upstate)” for “Acetylated-lysine polyclonal Antibody (Cell Signaling)”, “anti-mouse” for “anti-rabbit”, “0.58 M” for “0.58M”
as §3, with “respectively. Determine the concentration of protein by Bradford assay. • 6.” for “respectively.”

[3] = system: total HDAC enzyme (HeLa extract); test: In vitro inhibition of total HDAC enzyme activity (HDAC Fluorimetric Assay/Drug Discovery Kit, BIOMOL); format: biochemical, human
Procedure: Measurement of in vitro inhibition of total HDAC enzyme activity:
The in vitro inhibition of total HDAC enzyme was determined by HDAC Fluorimetric Assay/Drug Discovery Kit (BIOMOL) according to manufacture's instruction. • 1. Add Assay buffer, diluted trichostatin A or test inhibitor to appropriate wells of the microtiter plate. Following table lists examples of various assay types and the additions required for each test.
• 2. Add diluted HeLa extract or other HDAC sample to all wells except those that are to be “No Enzyme Controls” (Blank). • 3. Allow diluted Fluor de LyS™ Substrate and the samples in the microtiter plate to equilibrate to assay temperature (25° C.). • 4. Initiate HDAC reactions by adding diluted substrate (25 μl) to each well and mixing thoroughly. • 5. Allow HDAC reactions to proceed for desired length of time and then stop them by addition of Fluor de Lys™ Developer (50 μl). Incubate plate at room temperature (25° C.) for 10-15 min. • 6. Read samples in a microtiter-plate reading fluorimeter capable of excitation at a wavelength in the range 350-380 nm and detection of emitted light in the range 440-460 nm.

**Q.** `O=C(CCCCCCC(=O)Nc1ccccc1)NO` [SAHA, suberoylanilide hydroxamic acid, reference compound] was tested. Which fold induction at 10 µM [1] did it give?
**A.** 12.4

**Q.** What about the fold induction at 10 µM [2] of the same molecule?
**A.** 7.52

**Q.** What about the “% of Inhibition on Total HDAC Enzyme at 30 μM” value [3] of the same molecule?
**A.** 99%
